Measurements as given in PubChem BioAssay AID2551 (National Center for Advancing Translational Sciences (NCATS), 2010).
Among all 310,000 compounds or so, about 17,000 (5.5%) were called active. This list was built around the results that the source calls inconclusive (neither active nor inactive); the mix of calls is not that of the screen. Calls follow the shape of the dose curve; as a rule, active = well fitted inhibition curve with a large enough effect; inconclusive = small, poorly fitted or top-dose-only effect, or effect the other way; inactive = no such curve, though single readings can be large or run the other way. A potency beside an inconclusive call is a rough fit, not a confirmed value.

Amino acid sequences for entries named in this document (tags omitted). A change or cut given only in a name is not applied to a line headed by its entry.
UniProt P51450: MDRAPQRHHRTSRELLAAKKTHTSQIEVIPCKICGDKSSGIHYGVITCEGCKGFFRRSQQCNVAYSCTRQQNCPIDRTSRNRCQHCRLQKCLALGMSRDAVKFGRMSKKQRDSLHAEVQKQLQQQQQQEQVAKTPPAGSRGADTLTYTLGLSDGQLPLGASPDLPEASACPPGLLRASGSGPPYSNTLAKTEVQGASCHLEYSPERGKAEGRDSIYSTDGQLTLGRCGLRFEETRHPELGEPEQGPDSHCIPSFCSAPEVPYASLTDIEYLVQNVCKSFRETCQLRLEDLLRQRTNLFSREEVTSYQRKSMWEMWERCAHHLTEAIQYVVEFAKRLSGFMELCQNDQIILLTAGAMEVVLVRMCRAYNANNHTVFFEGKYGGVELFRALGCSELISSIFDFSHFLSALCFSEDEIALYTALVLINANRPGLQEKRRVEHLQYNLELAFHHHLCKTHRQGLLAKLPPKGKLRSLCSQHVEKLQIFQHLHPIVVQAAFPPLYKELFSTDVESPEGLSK

biological target: Nuclear receptor ROR-gamma (Mus musculus) (UniProt P51450); experiment: qHTS for inhibitors of ROR gamma transcriptional activity; conditions: Drosophila S2 Gal4-RORgamma UAS-luciferase reporter, 20 h; activity change, negative = inhibition: at 53.6 µM (top of the series); also: nearly all actives have a fitted effect of over 60% in size
Procedure, shortened: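 Stable Schneider cell line, Gal4 DNA-binding domain fused to ROR gamma, UAS-luciferase. Cmpd 1 hr RT → CuSO4 700 uM final → 20 hr RT → luciferase reagent 10 min → luminescence.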
% is scaled to controls: 0 for no effect and ±100 for the full control effect; potency is read from the fitted curve at half-maximal effect.

Potency, active:
CC(C)CCNC(=S)NC1CCCC1 2.82 µM, CC(C)c1ccc(Nc2nnc(SCC(=O)Nc3ncc(S(=O)(=O)c4ccc([N+](=O)[O-])cc4)s3)s2)cc1 10 µM, COc1ccc(-c2cc(-c3ccc(Cl)cc3)n[nH]2)c(O)c1 8.91 µM, Cc1c(Br)c(=O)oc2c(Br)c(O)c(O)cc12 5.01 µM, CN(Cc1ccc(Cl)s1)C(=O)CCl 10 µM, O=C(NC(=S)Nc1ccccc1)c1csnn1 5.62 µM, COc1ccc(Cl)cc1C(=O)Nc1nc2ccccc2[nH]1 2.24 µM, Cc1occc1C(=O)N/N=C/C=C/c1ccccc1[N+](=O)[O-] 11.2 µM, COCCCNC(=S)NNC(=O)C1CC1c1ccc(C(C)(C)C)cc1 (centres undefined) 4.47 µM, Cc1ccc(-n2nnc(-c3nccs3)n2)cc1 3.98 µM, Cc1cc(C)n(-c2nc(NCC3CCCO3)c3c4c(sc3n2)COC(C)(C)C4)n1 (centres undefined) 2.82 µM, NC(=S)N/N=C/c1ccc(-c2ccc(SC(F)F)cc2)o1 0.501 µM, O=C(Oc1c(Cl)cc(Cl)c2cccnc12)c1cccs1 0.631 µM

Potency, inconclusive:
Cc1ccc(CC(=O)N/N=C/c2ccc3c(c2)OCO3)cc1 3.55 µM [activator, partial curve], CN(C(=O)c1ccc2c(=O)n3c(nc2c1)CCCCC3)c1ccccc1Cl 17.8 µM [activator, single point], COc1ccc(OCC(=O)Nc2ccc(C)c(S(=O)(=O)N(C)C)c2)cc1 15.8 µM [activator, single point], COc1ccc(Cl)cc1Nc1ncnc2sc(C)c(S(=O)(=O)N3CCC(C)CC3)c12 0.0794 µM [inhibitor, full curve, poor fit], COc1ccc(NC(=S)N2CCC(c3ccccc3)C2)cc1 (centres undefined) 11.2 µM [inhibitor, single point], Cc1ccc2oc(=O)n(CC(=O)OC(C)C)c2c1 0.199 µM [inhibitor, full curve, poor fit], COc1ccccc1-n1cc(C(=O)c2cc(Cl)ccc2O)cc(C#N)c1=O 11.2 µM [activator, partial curve, poor fit], COc1ccc(C[C@H]2CN3C(=NC[C@@H]3Cc3ccccc3)N2CCNC(=O)c2ccc(C)c(Br)c2)cc1 35.5 µM [inhibitor, single point], Nc1c(C(=O)NCc2ccco2)c2nc3ccccc3nc2n1CCc1ccccc1 35.5 µM [activator, single point], CCC(C)(C)NC(=O)C(c1ccc(O)cc1)N(Cc1ccco1)C(=O)CCC(=O)Nc1ccccn1 (centres undefined) 22.4 µM [activator, partial curve, poor fit], CC1(C)CN(c2ccc(N3CC(C)(C)C3=O)cc2)C1=O 6.31 µM [activator, full curve], COc1ccc(OCCn2cc(C=O)c3ccccc32)cc1 14.1 µM [activator, single point], CCCCOc1ccc(C(=O)Nc2cccc(C)n2)cc1 20 µM [inhibitor, single point], Cc1ccccc1C(=O)NCC(=O)NNC(=S)NC(=O)c1ccccc1 20 µM [inhibitor, single point], O=C(NC(=S)Nc1cccc(NC(=O)c2ccccc2)c1)c1cccc([N+](=O)[O-])c1 0.794 µM [inhibitor, single point], COCCC(=O)N1CCC(Oc2ccc(C(=O)N3CCCCC3CCO)cc2)CC1 (centres undefined) 35.5 µM [activator, single point], Cc1ccc(NC(=O)CN2C(=O)N/C(=C/c3ccc(C)s3)C2=O)cc1 35.5 µM [activator, single point], COc1ccc(C(=O)NCc2nnc(SCC(=O)Nc3nnc(C)s3)o2)cc1OC 25.1 µM [inhibitor, single point], CN1CCN(C(=O)c2ccc3c(c2)OCCO3)CC1 35.5 µM [activator, single point], CC(=O)c1cc(CC=C(C)C)c(O)cc1O 35.5 µM [inhibitor, single point], C=CCNC(=O)/C(=C/c1cn(-c2ccccc2)nc1-c1cccc([N+](=O)[O-])c1)NC(=O)c1ccccc1 12.6 µM [activator, partial curve, poor fit], Cn1c(/C=C(\C#N)C(N)=S)ccc1-c1ccc(Br)cc1 22.4 µM [inhibitor, single point], Cc1cc(C(F)F)n2ncc(C(=O)N3CCCCC3)c2n1 11.2 µM [inhibitor, single point], CCC(C)c1ccccc1N1CC(C(=O)Nc2cccc(S(=O)(=O)N3CCOCC3)c2)CC1=O (centres undefined) 10 µM [activator, partial curve], O=C(O)C1CCN(C(=O)COc2ccc(Br)cc2)CC1 8.91 µM [inhibitor, partial curve, poor fit], O=C(CNC(=O)c1[nH]cnc1C(=O)N[C@@H](Cc1ccccc1)C(=O)OCc1ccccc1)OCc1ccccc1 17.8 µM [inhibitor, single point], O=C(O)c1ccc2nc(-c3ccccc3)sc2c1 11.2 µM [inhibitor, single point], CC/C(=N/Nc1cccc(Cl)c1)c1cnnc(SC)n1 0.501 µM [activator, full curve, poor fit], O=C(CCc1ccccc1)N/N=C\c1cc2c(cc1Br)OCO2 14.1 µM [activator, single point], NS(=O)(=O)c1ccc(N2N=C(c3ccc(Br)cc3)CC2c2ccc(F)cc2)cc1 (centres undefined) 35.5 µM [inhibitor, single point], Cc1ccccc1-c1ccc2ncnc(N(C)C)c2c1 17.8 µM [inhibitor, single point], O=C(Cc1ccc(Cl)cc1)N/N=C/c1cccc(O)c1 35.5 µM [activator, single point], COC(=O)c1cc(NC(=O)C2CC=CCC2C(=O)O)cc(C(=O)OC)c1 (centres undefined) 0.0316 µM [inhibitor, full curve, poor fit], CC1CC1c1ccc(/C=C(\C#N)C(=O)Nc2ccc(Cl)cc2Cl)o1 (centres undefined) 5.62 µM [activator, full curve], COc1cccc2c1OC1(C)CC2N(C(=O)c2ccco2)C(=S)N1c1ccc(F)cc1 (centres undefined) 15.8 µM [inhibitor, single point], CC(=O)c1ccc(OC(=O)CCc2nc3ccccc3s2)cc1 5.62 µM [inhibitor, full curve], COc1cccc(Nc2ncc3ncc(=O)n(CCC#N)c3n2)c1 14.1 µM [activator, partial curve], COc1ccc(C2(C(=O)Nc3ccc(S(=O)(=O)Nc4nc(C)cc(C)n4)cc3)CCCC2)cc1OC 3.16 µM [activator, full curve], O=C(/C=C/c1ccc(F)cc1)NC(=S)NC1CCCCC1 35.5 µM [inhibitor, single point], CCOc1ccccc1NC(=O)c1c(NC(=O)CNCc2ccco2)sc2c1CCC2 3.16 µM [inhibitor, partial curve, poor fit], O=C(CNC(=O)c1ccc([N+](=O)[O-])cc1)N/N=C\c1ccc(OC(=O)c2ccccc2)cc1 0.282 µM [inhibitor, partial curve]

Activity change, negative = inhibition, inactive:
CCCNS(=O)(=O)c1ccc(N2CCCC2=O)c([N+](=O)[O-])c1 17.7%, CCc1cccc(NC(=S)N(CCOC)C(C)c2ccco2)c1 (centres undefined) -23%, COc1ccccc1NS(=O)(=O)c1cc(C(=O)N2CCN(C/C=C/c3ccccc3)CC2)ccc1C 7.28%, COc1ccccc1NC(=O)CSc1nnc(-c2ccc(C)cc2)o1 2.8%, CSCCC(NS(=O)(=O)c1ccc(C)cc1)C(=O)NCCc1c[nH]c2ccccc12 (centres undefined) -0.592%, Cc1ccc(NC(=O)c2cc(-c3ccccc3)n[nH]2)cc1 -0.0853%, COCCCNC(=O)CCc1c(C)nc2c(c(C)nn2-c2ccc(C)cc2)c1C -1.1%, COc1ccc(CNC(=O)CCS(=O)(=O)c2ccc3c(c2)CCN3C(C)=O)cc1 -3.13%, COc1ccc(C(CC(=O)N2CCCC2)c2ccc(F)cc2)cc1 (centres undefined) -5.5%, Cc1cc(C(=O)CSc2nc3ccccc3c(=O)n2C)c(C)n1Cc1ccc2c(c1)OCO2 19.8%, COc1ccc(CNC(=O)COC(=O)c2ccccc2OCC(=O)Nc2ccc(SC(F)F)cc2)cc1 -16%, CCCc1cc(C(=O)NCCc2ccccc2)no1 -43.2%, Cc1sc2ncnc(N3CCCCC3)c2c1C 0.661%, COc1cc2c(cc1NC(=O)c1cccnc1)oc1ccccc12 21.2%, Cc1ccc(NC(=O)CC2NCCN(Cc3ccccc3)C2=O)cc1 (centres undefined) 18.1%, COc1ccccc1C(=O)N/N=C1/NC(=O)CC(C(=O)Nc2ccccc2)S1 (centres undefined) -10.5%, Cn1nnc(NC(=O)c2ccc(Br)o2)n1 -1.07%, CCSC1=C(C#N)C(c2ccccc2C)CC(=O)N1 (centres undefined) -0.597%, Cc1noc(NS(=O)(=O)c2cccc3c(N(C)C)cccc23)c1C 15.6%, COc1ccc(C(=O)CSc2nnc(CN3CCCCC3)n2-c2ccc(F)cc2)cc1 1.28% [at 10 µM]
